# Measured values reported in the supplement of paper PMC8728848.
# The list shows a part of the results.
# Tests used:
# Assay in all cases: glycan array binding signal (z-score within array); higher = stronger binding
# Conditions in all cases: glycan notation: IUPAC condensed, linker removed
# [1] = target: Neu5Ac(a2-6)Gal(b1-3)GlcNAc(b1-3)[Gal(b1-4)GlcNAc(b1-6)]Gal(b1-4)Glc
# Summary of the method: (§1)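 Glycan array data were curated from 3228 arrays in the Consortium for Functional Glycomics database and kept only where the protein sequence was available. Glycan names were converted to IUPAC-condensed notation, and columns mapping to the same glycan were averaged. The binding signal is a within-array Z-score, averaged across arrays of the same protein sequence at different concentrations or buffers and across linkers. Negative Z-scores can be read as non-binding.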
# Neu5Ac(a2-6)Gal(b1-4)Glc = target: Neu5Ac(a2-6)Gal(b1-4)Glc
# Summary of the method: as §1
# [2] = target: Neu5Ac(a2-6)Gal(b1-4)GlcNAc
# Summary of the method: as §1
# [3] = target: Neu5Ac(a2-6)Gal(b1-4)GlcNAc(b1-2)Man
# Summary of the method: as §1
# [4] = target: Neu5Ac(a2-6)Gal(b1-4)GlcNAc(b1-2)Man(a1-3)Man(b1-4)GlcNAc(b1-4)GlcNAc
# Summary of the method: as §1
# [5] = target: Neu5Ac(a2-6)Gal(b1-4)GlcNAc(b1-2)Man(a1-3)[Gal(b1-4)GlcNAc(b1-2)Man(a1-6)]Man(b1-4)GlcNAc(b1-4)GlcNAc
# Summary of the method: as §1
# [6] = target: Neu5Ac(a2-6)Gal(b1-4)GlcNAc(b1-2)Man(a1-3)[GlcNAc(b1-2)Man(a1-6)]Man(b1-4)GlcNAc(b1-4)GlcNAc
# Summary of the method: as §1
# [7] = target: Neu5Ac(a2-6)Gal(b1-4)GlcNAc(b1-2)Man(a1-3)[GlcNAc(b1-4)][Neu5Ac(a2-6)Gal(b1-4)GlcNAc(b1-2)Man(a1-6)]Man(b1-4)GlcNAc(b1-4)GlcNAc
# Summary of the method: as §1
# [8] = target: Neu5Ac(a2-6)Gal(b1-4)GlcNAc(b1-2)Man(a1-3)[Man(a1-6)]Man(b1-4)GlcNAc(b1-4)GlcNAc
# Summary of the method: as §1
# [9] = target: Neu5Ac(a2-6)Gal(b1-4)GlcNAc(b1-2)Man(a1-3)[Neu5Ac(a2-3)Gal(b1-4)GlcNAc(b1-2)Man(a1-6)]Man(b1-4)GlcNAc(b1-4)GlcNAc
# Summary of the method: as §1
# [10] = target: Neu5Ac(a2-6)Gal(b1-4)GlcNAc(b1-2)Man(a1-3)[Neu5Ac(a2-6)Gal(b1-4)GlcNAc(b1-2)Man(a1-6)]Man(b1-4)GlcNAc(b1-4)GlcNAc
# Summary of the method: as §1
# [11] = target: Neu5Ac(a2-6)Gal(b1-4)GlcNAc(b1-2)Man(a1-3)[Neu5Ac(a2-6)Gal(b1-4)GlcNAc(b1-2)Man(a1-6)]Man(b1-4)GlcNAc(b1-4)[Fuc(a1-6)]GlcNAc
# Summary of the method: as §1
# [12] = target: Neu5Ac(a2-6)Gal(b1-4)GlcNAc(b1-2)Man(a1-6)Man(b1-4)GlcNAc(b1-4)GlcNAc
# Summary of the method: as §1
# [13] = target: Neu5Ac(a2-6)Gal(b1-4)GlcNAc(b1-2)Man(a1-6)[Gal(b1-4)GlcNAc(b1-2)Man(a1-3)]Man(b1-4)GlcNAc(b1-4)GlcNAc
# Summary of the method: as §1
# [14] = target: Neu5Ac(a2-6)Gal(b1-4)GlcNAc(b1-2)Man(a1-6)[GlcNAc(b1-2)Man(a1-3)]Man(b1-4)GlcNAc(b1-4)GlcNAc
# Summary of the method: as §1
# [15] = target: Neu5Ac(a2-6)Gal(b1-4)GlcNAc(b1-2)Man(a1-6)[Man(a1-3)]Man(b1-4)GlcNAc(b1-4)GlcNAc
# Summary of the method: as §1
# [16] = target: Neu5Ac(a2-6)Gal(b1-4)GlcNAc(b1-2)[Neu5Ac(a2-6)Gal(b1-4)GlcNAc(b1-4)]Man(a1-3)[GlcNAc(b1-4)][Neu5Ac(a2-6)Gal(b1-4)GlcNAc(b1-2)[Neu5Ac(a2-6)Gal(b1-4)GlcNAc(b1-6)]Man(a1-6)]Man(b1-4)GlcNAc(b1-4)GlcNAc
# Summary of the method: as §1
# [17] = target: Neu5Ac(a2-6)Gal(b1-4)GlcNAc(b1-2)[Neu5Ac(a2-6)Gal(b1-4)GlcNAc(b1-4)]Man(a1-3)[GlcNAc(b1-4)][Neu5Ac(a2-6)Gal(b1-4)GlcNAc(b1-4)Man(a1-6)]Man(b1-4)GlcNAc(b1-4)GlcNAc
# Summary of the method: as §1
# [18] = target: Neu5Ac(a2-6)Gal(b1-4)GlcNAc(b1-2)[Neu5Ac(a2-6)Gal(b1-4)GlcNAc(b1-6)]Man(a1-6)[Neu5Ac(a2-6)Gal(b1-4)GlcNAc(b1-2)Man(a1-3)][GlcNAc(b1-4)]Man(b1-4)GlcNAc(b1-4)GlcNAc
# Summary of the method: as §1
# [19] = target: Neu5Ac(a2-6)Gal(b1-4)GlcNAc(b1-3)Gal(b1-3)GlcNAc
# Summary of the method: as §1
# [20] = target: Neu5Ac(a2-6)Gal(b1-4)GlcNAc(b1-3)Gal(b1-4)GlcNAc
# Summary of the method: as §1
# [21] = target: Neu5Ac(a2-6)Gal(b1-4)GlcNAc(b1-3)Gal(b1-4)GlcNAc(b1-2)Man(a1-3)[Neu5Ac(a2-6)Gal(b1-4)GlcNAc(b1-3)Gal(b1-4)GlcNAc(b1-2)Man(a1-6)]GalNAc
# Summary of the method: as §1
# [22] = target: Neu5Ac(a2-6)Gal(b1-4)GlcNAc(b1-3)Gal(b1-4)GlcNAc(b1-3)Gal(b1-4)GlcNAc
# Summary of the method: as §1
# [23] = target: Neu5Ac(a2-6)Gal(b1-4)GlcNAc(b1-3)Gal(b1-4)GlcNAc(b1-3)Gal(b1-4)GlcNAc(b1-2)Man(a1-3)[Neu5Ac(a2-6)Gal(b1-4)GlcNAc(b1-3)Gal(b1-4)GlcNAc(b1-3)Gal(b1-4)GlcNAc(b1-2)Man(a1-6)]GalNAc
# Summary of the method: as §1
# [24] = target: Neu5Ac(a2-6)Gal(b1-4)GlcNAc(b1-3)Gal(b1-4)GlcNAc(b1-3)GalNAc
# Summary of the method: as §1
# [25] = target: Neu5Ac(a2-6)Gal(b1-4)GlcNAc(b1-3)Gal(b1-4)GlcNAc(b1-3)[Neu5Ac(a2-6)Gal(b1-4)GlcNAc(b1-3)Gal(b1-4)GlcNAc(b1-6)]GalNAc
# Summary of the method: as §1
# [26] = target: Neu5Ac(a2-6)Gal(b1-4)GlcNAc(b1-3)Gal(b1-4)GlcNAc(b1-6)[Gal(b1-3)]GalNAc
# Summary of the method: as §1
# [27] = target: Neu5Ac(a2-6)Gal(b1-4)GlcNAc(b1-3)Gal(b1-4)[Fuc(a1-3)]GlcNAc(b1-3)Gal(b1-4)[Fuc(a1-3)]GlcNAc
# Summary of the method: as §1
# [28] = target: Neu5Ac(a2-6)Gal(b1-4)GlcNAc(b1-3)GalNAc
# Summary of the method: as §1
# [29] = target: Neu5Ac(a2-6)Gal(b1-4)GlcNAc(b1-3)[Neu5Ac(a2-6)Gal(b1-4)GlcNAc(b1-6)]GalNAc
# Summary of the method: as §1
# [30] = target: Neu5Ac(a2-6)Gal(b1-4)GlcNAc(b1-6)GalNAc
# Summary of the method: as §1
# [31] = target: Neu5Ac(a2-6)Gal(b1-4)GlcNAc(b1-6)[Gal(b1-3)GlcNAc(b1-3)]Gal(b1-4)Glc
# Summary of the method: as §1
# [32] = target: Neu5Ac(a2-6)Gal(b1-4)GlcNAc(b1-6)[Gal(b1-3)]GalNAc
# Summary of the method: as §1
# [33] = target: Neu5Ac(a2-6)Gal(b1-4)GlcNAc6S
# Summary of the method: as §1
# Neu5Ac(a2-6)GalNAc = target: Neu5Ac(a2-6)GalNAc
# Summary of the method: as §1
# [34] = target: Neu5Ac(a2-6)GalNAc(b1-4)GlcNAc
# Summary of the method: as §1
# [35] = target: Neu5Ac(a2-6)GalNAc(b1-4)GlcNAc6S
# Summary of the method: as §1
# [36] = target: Neu5Ac(a2-6)GlcNAc(b1-4)GlcNAc
# Summary of the method: as §1
binder,measurement,setting,value
GS13814A-bth-462-26-462 (Bacteroides thetaiotaomicron) (protein) DDRDNLMVNDQIGLLHSTYTETEIFRGMDTPYQLFVIKSGKGKQETEVSISVDETVLQSYNTDNGTSIQLLPSDCYTILQPALRLNDSDYRKAFDIKWNADRLSDLLSTGKEYGLPIQMSVVQNFISADDERLKTIIVPTIKEPYLQMDVPGMSPVTDFMPTFGDLNERELFVKIRTNYSNDEDISFQIEVDPQLVIDYNTAHGTAYKMLPESSFTVDNKGVILTGMKETFIKIKYHKKGLIPEEGTYLFGDYVLPLRITSVSKYGISPDAASKLYTVKFQPDPIDKKGWSVIDFNNCCTQDGGWYLNMGWGVESLIDNNPGTQWLCRWDVKEPLPYYFVFDMGKEYTLFRFGFANPVAPAAHVWAGTSKAGYVEASIDNENWVKLKDWTSPKIGEPNVNMDVPATQARYIRFVITDTYPTYDGLRVSLGEVYAWGM,glycan array binding signal (z-score),[1],-0.133
same,glycan array binding signal (z-score),Neu5Ac(a2-6)Gal(b1-4)Glc,0.642
same,glycan array binding signal (z-score),[2],-0.069
same,glycan array binding signal (z-score),[3],-1.09
same,glycan array binding signal (z-score),[4],-0.925
same,glycan array binding signal (z-score),[5],-0.242
same,glycan array binding signal (z-score),[6],0.48
same,glycan array binding signal (z-score),[7],0.199
same,glycan array binding signal (z-score),[8],0.119
same,glycan array binding signal (z-score),[9],-0.153
same,glycan array binding signal (z-score),[10],-0.189
same,glycan array binding signal (z-score),[11],1.84
same,glycan array binding signal (z-score),[12],-0.709
same,glycan array binding signal (z-score),[13],0.333
same,glycan array binding signal (z-score),[14],-0.713
same,glycan array binding signal (z-score),[15],-1.12
same,glycan array binding signal (z-score),[16],-1.17
same,glycan array binding signal (z-score),[17],0.153
same,glycan array binding signal (z-score),[18],-0.945
same,glycan array binding signal (z-score),[19],-0.896
same,glycan array binding signal (z-score),[20],-0.789
same,glycan array binding signal (z-score),[21],-0.118
same,glycan array binding signal (z-score),[22],0.951
same,glycan array binding signal (z-score),[23],-0.144
same,glycan array binding signal (z-score),[24],-0.183
same,glycan array binding signal (z-score),[25],-1.35
same,glycan array binding signal (z-score),[26],-0.806
same,glycan array binding signal (z-score),[27],-0.215
same,glycan array binding signal (z-score),[28],-0.883
same,glycan array binding signal (z-score),[29],-0.877
same,glycan array binding signal (z-score),[30],-0.162
same,glycan array binding signal (z-score),[31],-0.607
same,glycan array binding signal (z-score),[32],-1.67
same,glycan array binding signal (z-score),[33],-0.329
same,glycan array binding signal (z-score),Neu5Ac(a2-6)GalNAc,-0.493
same,glycan array binding signal (z-score),[34],-0.674
same,glycan array binding signal (z-score),[35],-0.463
same,glycan array binding signal (z-score),[36],-0.915
